PubChem BioAssay AID2685 (National Center for Advancing Translational Sciences (NCATS), 2010)
Values joined by “and” are separate entries in the source; they are usually repeats but may differ in a detail not shown here. Equal values may be shown once. The list shows a part of the results. The main result of the screen is listed elsewhere. These columns were measured beside it and carry no call. The list favours compounds with an active or inconclusive main result. Words in brackets tell the shape of the fitted curve; partial curves, single points and poor fits give uncertain potencies. Where a SMILES comes first, the peptide text is derived from it. [ ]: non-standard residue; d: D form. The star is where a group is joined. ξ: configuration not given here. ξY = NC(Cc1ccc(O)cc1)C(=O)O; Cbz = O=C(OCc1ccccc1)*; OtBu = CC(C)(C)O*; tBu = CC(C)(C)*

Test: qHTS Assay for Lipid Storage Modulators in Drosophila S3 Cells;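 on cell number change: cells counted by Cell Tracker Red CMTPX staining in the red channel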
Details: BODIPY lipid droplet fluorescence, 18-24 h; for cell number change: measured here: cell count max response, cells fed with added oleic acid
Procedure, shortened: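 Laser-scanning cytometry quantifies lipid droplet accumulation (500–530 nm total intensity; droplet/cell object ratio) in oleic acid-fed (400 uM added) Drosophila S3 cells treated with a concentration series. 20 uM Triacsin C defined 100% inhibition.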

[1] = measured here: lipid fluorescence (Fed channel) AC50, cells fed with added oleic acid
[2] = measured here: cell number channel AC50, cells fed with added oleic acid

Structure (SMILES)	cell number change	AC50 [1]	AC50 [2]
COc1ccc(-c2nc(CS(=O)CC(=O)N3CCN(C)CC3)c(C)o2)cc1 (stereo not given)	14.9%		
CSc1ccccc1NC(=O)Nc1cccc(F)c1	-2.35%	4.11 µM [falling, partial curve, poor fit]	
CCOC(=S)SCC(=O)Nc1ncc(C)s1	-43.2%	29.1 µM [falling, single point]	23.1 µM [falling, partial curve, poor fit]
Fc1ccc(N2CCN(Cc3cnc(Oc4ccc(Br)cc4)s3)CC2)cc1	2.49%		2.31 µM [rising, partial curve, poor fit]
O=C(Nc1cccc(-n2cnnn2)c1)c1ccc(C(F)(F)F)cc1	0.717%	2.91 µM [rising, partial curve]	
CC1CN(C(=O)COc2ccc3ccccc3c2Br)CC(C)O1 (stereo not given)	-6.45%	2.31 µM [falling, single point]	
O=C(NN=C1CCN(Cc2ccccc2)CC1)c1cc2ccccc2cc1O	9.68%	8.2 µM [rising, single point]	
O=C(NCc1cccnc1)c1ccc(-c2cc3ccccc3oc2=O)cc1	6.46%		6.51 µM [falling, single point]
C=CCn1c(COc2ccccc2F)nnc1SCC(=O)Nc1cc2oc3ccccc3c2cc1OC	41.6%		13 µM [rising, partial curve]
N=C1SCC(=O)N1c1ncc(Cc2cccc(Cl)c2)s1	-45.6%	23.1 µM [falling, single point]	29.1 µM [falling, single point]
CCNC(=S)N/N=C(\C)c1ccc2ccccc2c1OC(F)F	31.4%		0.366 µM [rising, full curve, poor fit]
CCOc1ccccc1CNc1nc2ccccc2n1C	-8.73%	0.116 µM [rising, full curve, poor fit]	
Cc1cccc(-n2cnc(C(=O)Nc3cccnc3)c2)n1	24.2%	8.2 µM [rising, partial curve, poor fit]	
C/C(CC(=O)Nc1ccc(Cl)cc1Cl)=N\NC(=O)C(=O)NCCO	29.2%	23.1 µM [rising, single point]	
c1ccc(-c2ccc(C(c3ccccc3)n3ccnc3)cc2)cc1 (stereo not given)	-50.4% and -72%	29.1 µM [falling, single point] and 25.9 µM [falling, partial curve]	23.1 µM [falling, partial curve]
Oc1c(Cl)cc(Cl)c2cccnc12	-41.8%	18.4 µM [falling, partial curve, poor fit]	18.4 µM [falling, partial curve, poor fit]
Cc1c2c(nc3nnnn13)CCCC2	5.58%		
CN(C)S(=O)(=O)n1cnc([C@H]2c3c(ncn3Cc3ccccc3)C[C@H]3COC(=O)[C@@H]32)c1	21.5%	0.0058 µM [rising, full curve, poor fit]	
Cc1cc(S(=O)(=O)N2CCN(CC(=O)NCCc3cccs3)CC2)ccc1Br		7.31 µM [falling, partial curve]	
O=C(NCc1ccccc1)C12CC3CC(CC(Br)(C3)C1)C2	15.8%	6.51 µM [falling, single point]	

An excerpt of these results, in CSV form.
Structure (SMILES),cell number change,AC50 [1],AC50 [2]
c1ccc(-c2ccc(C(c3ccccc3)n3ccnc3)cc2)cc1 (stereo not given),-50.4% and -72%,"29.1 µM [falling, single point] and 25.9 µM [falling, partial curve]","23.1 µM [falling, partial curve]"
Oc1c(Cl)cc(Cl)c2cccnc12,-41.8%,"18.4 µM [falling, partial curve, poor fit]","18.4 µM [falling, partial curve, poor fit]"
CN(C)S(=O)(=O)n1cnc([C@H]2c3c(ncn3Cc3ccccc3)C[C@H]3COC(=O)[C@@H]32)c1,21.5%,"0.0058 µM [rising, full curve, poor fit]",
Cc1cc(S(=O)(=O)N2CCN(CC(=O)NCCc3cccs3)CC2)ccc1Br,,"7.31 µM [falling, partial curve]",
O=C(NCc1ccccc1)C12CC3CC(CC(Br)(C3)C1)C2,15.8%,"6.51 µM [falling, single point]",

The list continues:

Structure (SMILES)	cell number change	AC50 [1]	AC50 [2]
O=C1c2ccccc2C(=O)N1c1ncccn1	-36.6%	5.8 µM [falling, full curve]	0.731 µM [falling, full curve, poor fit]
Cc1ccc(N(C(=O)Cn2nnc(-c3ccccc3)n2)C(C(=O)NC2CCCCC2)c2ccccn2)cc1C (stereo not given)	-13.5%	0.517 µM [falling, partial curve]	0.411 µM [falling, partial curve, poor fit]
CCOC(=O)c1c(NC(=O)COc2ccccc2)sc2c1CC(C)(C)NC2(C)C	-29.4%	0.00517 µM [falling, full curve, poor fit]	
COc1ccc(S(=O)(=O)N2CCC(N3CCCCC3)CC2)cc1		6.51 µM [falling, single point]	
CC(=O)N1c2ccc(S(=O)(=O)N3CCCC3C(=O)Nc3ccc(C)cc3)cc2CC1C (stereo not given)	3.75%	11.6 µM [rising, partial curve]	
CC(C)CCSc1nc(N2CCOCC2)c2c(c1C#N)CC(C)(C)OC2	-1.68%	6.51 µM [falling, single point]	
CC(C)(C)OC(=O)C(Cc1ccc(OC(C)(C)C)cc1)NC(=O)CNC(=O)OCc1ccccc1 (stereo not drawn) (Cbz-Gly-[ξY](tBu)-OtBu)	-2.57%	1.84 µM [falling, partial curve, poor fit]	1.64 µM [falling, partial curve, poor fit]
CCc1ccc(NC(=O)CN2CCCN(S(=O)(=O)c3ccc(F)cc3)CC2)cc1	20.3%	29.1 µM [falling, single point]	
O=C(OC1CCN(c2ncc(C(F)(F)F)cc2Cl)CC1)c1cccc(C(F)(F)F)c1	-7.43%	3.66 µM [falling, single point]	
CC(NC(=O)/C(C#N)=C/c1ccc(Cl)c([N+](=O)[O-])c1)c1ccccc1 (stereo not given)	-31.1%	5.8 µM [falling, partial curve]	0.651 µM [falling, full curve, poor fit]
COc1cc2c(cc1O)CC[n+]1cc3c(OC)c(OC)ccc3cc1-2	-17.3%	4.61 µM [falling, full curve, poor fit]	
Cc1ccc(NC(=O)CSc2nc3ccccc3c(=O)n2CC2CCCO2)cc1 (stereo not given)	26.8%	29.1 µM [rising, single point]	
COc1ccc([C@H]2CC(=O)C=C(c3ccc(F)cc3OCc3ccccc3)C2)cc1	-0.906%	1.16 µM [falling, single point]	1.16 µM [falling, single point]
COc1ccccc1NS(=O)(=O)c1cccc(C(=O)N(C)Cc2cccs2)c1	30.3%		
Cc1ccsc1C(=O)Nc1ccc(O)c(-c2nc3ccccc3s2)c1	19.8%		0.82 µM [falling, single point]
Cc1sc2nc(C3CC3)nc(NCCNS(C)(=O)=O)c2c1C	-6.03%	0.116 µM [rising, full curve, poor fit]	
O=C(NCc1ccc(Cl)cc1)c1cc(=O)[nH]c2ccccc12	27.6%	29.1 µM [rising, single point]	0.0517 µM [rising, full curve, poor fit]
Cc1cc(C)c2oc(C(=O)NCCc3ccc(S(N)(=O)=O)cc3)cc(=O)c2c1		18.4 µM [rising, single point]	
Cc1cccc(NC(=O)CCOc2ccccc2)c1	-48.6%	0.411 µM [rising, full curve, poor fit]	0.82 µM [falling, full curve]
Cc1ccc(NC(=O)C2CCCN(C(=O)NCc3ccccc3)C2)c(C)c1 (stereo not given)	24.6%		

Structure (SMILES)	cell number change	AC50 [1]	AC50 [2]
CCOc1ccc(NC(=O)/C(C#N)=C/c2cn(CC(=O)O)c3ccccc23)cc1	-33%		2.31 µM [falling, full curve, poor fit]
CCCCN1C(Nc2ccccc2)=NC[C@@H]1CC(C)C	-23.1%	0.184 µM [rising, full curve]	
COc1ccc(COc2ccc(C3C(S(=O)(=O)c4ccccc4)CON3C)cc2OC)cc1 (stereo not given)	-19.4%	25.9 µM [falling, single point]	
Nc1c(C(=O)NCCc2ccc(Cl)cc2)sc2ccc(S(=O)(=O)N3CCCCC3)cc12	-14.5%	29.1 µM [falling, single point]	
C[C@]12CCC(=O)C=C1CC[C@@H]1[C@@H]2CC[C@@]2(C)[C@H]1CC[C@]2(O)C(=O)CO	0.0967%		
O=C(CNS(=O)(=O)c1ccc(Br)s1)N1CCN(c2ccc(F)cc2)CC1	10.4%		
CCOc1ccc(C(=O)Nc2cc(-c3nc4ccccc4[nH]3)ccc2C)cc1[N+](=O)[O-]	-24.4%		
CCn1c(-c2ccccc2Cl)nn(CC(=O)Nc2ccccc2C)c1=S	12.6%	6.51 µM [rising, single point]	2.91 µM [rising, single point]
CCOC(=O)c1sc(N2C(=O)C(O)=C(C(=O)c3ccco3)C2c2ccc(C)o2)nc1C (stereo not given)	21.7%	6.51 µM [rising, single point]	
Cc1sc2ncnc(N/N=C/c3ccc(O)cc3)c2c1C		11.6 µM [falling, partial curve, poor fit]	
O=C1NC(=O)/C(=C\c2ccc(Br)o2)S1	-31.9%		
O=C(CNS(=O)(=O)c1c(Cl)cccc1Cl)OCc1csc(-c2ccccc2)n1	7.83%	16.4 µM [rising, partial curve]	
CCC(C)/C(C)=N/Nc1ccc(S(N)(=O)=O)cc1[N+](=O)[O-] (stereo not given)	10%		
Cc1ccccc1NC(=S)N/N=C/C(C)c1ccccc1 (stereo not given)	28.9%		
O=S(=O)(c1cccc(-n2cnnn2)c1)N1CCOCC1	-12.9%	13 µM [falling, partial curve]	
O=C(C[N+]1(CC#Cc2ccccc2)CCOCC1)c1ccccc1	134%		23.1 µM [rising, single point]
C[n+]1cccc(C(=O)NNC(=O)C23CC4CC(CC(C4)C2)C3)c1	-0.223%	6.51 µM [falling, single point]	3.66 µM [falling, single point]
COC(=O)C(=C/C=C/c1cccnc1)C(=O)OC	-14.8%	29.1 µM [falling, single point]	
